Assay results published in US20220411496A1.
No constants are given. Whether binding was seen depends on the method and setting. Some entries that bind do so weakly or less than the wild type.

Assays:
[1] = target: T1, mouse LILRB4 on tumor-infiltrating myeloid cells (B16 tumors) (mouse) (UniProt Q64281); assay: flow cytometry on ectopic mouse tumors
T1 sequence (looked up): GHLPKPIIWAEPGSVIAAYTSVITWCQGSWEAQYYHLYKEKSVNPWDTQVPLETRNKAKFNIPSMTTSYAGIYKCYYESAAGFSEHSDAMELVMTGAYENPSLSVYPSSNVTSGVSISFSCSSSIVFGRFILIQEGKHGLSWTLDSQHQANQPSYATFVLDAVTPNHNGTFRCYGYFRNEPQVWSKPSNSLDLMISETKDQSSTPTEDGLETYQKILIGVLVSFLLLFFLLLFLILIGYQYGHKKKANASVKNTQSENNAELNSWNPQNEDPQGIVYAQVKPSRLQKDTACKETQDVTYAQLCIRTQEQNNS

[2] = target: T1, mouse LILRB4 on tumor-infiltrating myeloid cells (B16 tumors) (mouse); assay: flow cytometry of digested B16 melanoma mouse tumors, overlay on isotype
[3] = target: T1, mouse LILRB4 on tumor-infiltrating myeloid cells (B16 tumors) (mouse); assay: flow cytometry on digested B16 mouse tumors

- binding [1]: binds
- binding [2]: binds
- binding [3]: binds
B1: anti-LILRB4 (Pi1.5 Clone 1) (antibody, human IgG1, kappa, V domains shown)
VH: EVQLVESGGGLVQPGGSLRLSCAASGFNLSSSYMHWVRQAPGKGLEWVASISSSYGSTYYADSVKGRFTISADTSKNTAYLQMNSLRAEDTAVYYCARAHYVWYGSVYAHSYGGMDYWGQGTLVTVSS
VL: DIQMTQSPSSLSASVGDRVTITCRASQSVSSAVAWYQQKPGKAPKLLIYSASSLYSGVPSRFSGSRSGTDFTLTISSLQPEDFATYYCQQWSGGYSGLITFGQGTKVEIKR
